The record followed here is the supplement of paper PMC12024529.

One experiment relates to HEK293 WT BDD-FVIII-Gluc. The experiment can be described thus: secreted FVIII-Gluc luciferase Z-score vs DMSO control; higher = more FVIII-Gluc secretion. Conditions: 5 µM; 24 h.
Experiment [1] concerns HEK293 p.N1941S BDD-FVIII-Gluc. The experiment is described as above. Conditions: 5 µM; 24 h.

Where a name gives a salt, the structure may show the parent alone. This is one part of the list. Baselines shift from plate to plate; read single values as rough.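 The cells are HEK293 lines stably expressing B-domain-deleted factor VIII fused to Gaussia luciferase, either wild type or a misfolding-prone missense mutant. Each score is mean luminescence from triplicate wells minus the DMSO mean, divided by the DMSO standard deviation; a score of 2 or more counts as a hit, and low scores may reflect lower secretion or poorer cell viability.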

As to `C[C@]12C=CC(=O)C=C1CC[C@@H]1[C@@H]2[C@@H](O)C[C@@]2(C)[C@H]1CC[C@]2(O)C(=O)CO` [Prednisolone (Hydroretrocortine)], the “secreted FVIII-Gluc luciferase Z-score” value in the experiment on HEK293 WT BDD-FVIII-Gluc is active: 13.5; in experiment [1], active: 5.82.
On the same counts, the results for `COc1nc(N)nc2c1ncn2[C@@H]1O[C@H](CO)[C@@H](O)[C@@H]1O` [Nelarabine (Arranon)] are inactive: 1.69 and inactive: 0.225.
On the same counts, the results for `CN1CCN(c2c(F)cc3c(=O)c(C(=O)O)cn4c3c2OCN4C)CC1` [Marbofloxacin] are inactive: -3 and inactive: 0.967.
In the same order, the values of `CN1CCCC(n2nc(Cc3ccc(Cl)cc3)c3ccccc3c2=O)CC1` (stereo unspecified) [Azelastine hydrochloride (Astelin)] are active: 2.42 and inactive: -2.47.
For `CCOc1ccc(NC(C)=O)cc1` [Phenacetin], the “secreted FVIII-Gluc luciferase Z-score” value is inactive: 1.42 in the experiment on HEK293 WT BDD-FVIII-Gluc and inactive: 1.15 in experiment [1].
On the same counts, the results for `[I-].[K+]` [Potassium iodide] are inactive: -1.09 and inactive: -0.37.
In the same order, the values of `CN1CCC(=C2c3ccccc3CC(=O)c3sccc32)CC1` [Ketotifen fumarate (Zaditor)] are inactive: -1.77 and inactive: -3.76.
As for `O=C(O)Cc1cc(I)c(Oc2ccc(O)c(I)c2)c(I)c1` [Tiratricol], the “secreted FVIII-Gluc luciferase Z-score” value in the experiment with HEK293 WT BDD-FVIII-Gluc was active: 3.45; in experiment [1] it was inactive: 1.74.
In the same order, the values of `NC(=O)N1c2ccccc2C=Cc2ccccc21` [Carbamazepine (Carbatrol)] are inactive: -1.65 and inactive: 0.583.
For the compound `CCN(CC)CC(=O)Nc1c(C)cccc1C` [Lidocaine (Alphacaine)], the “secreted FVIII-Gluc luciferase Z-score” value in the experiment with HEK293 WT BDD-FVIII-Gluc was inactive: -3.11; in experiment [1] it was inactive: -0.579.
In the same order, the values of `CCOc1ccc2nc(S(N)(=O)=O)sc2c1` [Ethoxzolamide] are inactive: -0.763 and inactive: 1.06.
On the same counts, the results for `COc1cc2c(cc1OC)CC(=O)N(CCCN(C)C[C@H]1Cc3cc(OC)c(OC)cc31)CC2` [Ivabradine HCl (Procoralan)] are inactive: 0.317 and inactive: 0.0642.
In the same order, the values of `COc1ccc([C@@H]2Sc3ccccc3N(CCN(C)C)C(=O)[C@@H]2OC(C)=O)cc1` [Diltiazem HCl (Tiazac)] are inactive: -4.29 and inactive: -2.23.
As for `COCCOC(=O)C1=C(C)NC(C)=C(C(=O)OC(C)C)C1c1cccc([N+](=O)[O-])c1` (stereo unspecified) [Nimodipine (Nimotop)], the entries for the “secreted FVIII-Gluc luciferase Z-score” value (in the experiment on HEK293 WT BDD-FVIII-Gluc; in experiment [1]) were inactive: -1.01 and inactive: -0.679, respectively.
In the same order, the values of `CNC(=O)c1ccccc1Sc1ccc2c(/C=C/c3ccccn3)n[nH]c2c1` [Axitinib] are inactive: -2.62 and inactive: -6.09.
In the same order, the values of `N[C@@H]1CN(c2c(F)cc3c(=O)c(C(=O)O)cn([C@@H]4C[C@@H]4F)c3c2Cl)CC12CC2` [Sitafloxacin Hydrate] are inactive: 0.627 and inactive: 0.521.
On the same counts, the results for `CC[C@H](C)C(=O)O[C@H]1C[C@@H](C)C=C2C=C[C@H](C)[C@H](CC[C@@H]3C[C@@H](O)CC(=O)O3)[C@H]21` [Lovastatin (Mevacor)] are inactive: 1.04 and inactive: -4.51.
Regarding `CCCCC[C@H](O)/C=C/[C@H]1[C@H](O)CC(=O)[C@@H]1CCCCCCC(=O)O` [Alprostadil (Caverject)], the “secreted FVIII-Gluc luciferase Z-score” value is inactive: -1.94 in the experiment with HEK293 WT BDD-FVIII-Gluc and inactive: -2.24 in experiment [1].
Turning to `C#Cc1cccc(Nc2ncnc3cc(OCCOC)c(OCCOC)cc23)c1` [Erlotinib HCl], the “secreted FVIII-Gluc luciferase Z-score” value was inactive: -1.25 with HEK293 WT BDD-FVIII-Gluc and inactive: -3.45 in experiment [1].
In the same order, the values of `COC(=O)N/N=C/c1c[n+]([O-])c2ccccc2[n+]1[O-]` [Carbadox] are inactive: -1.72 and inactive: 1.32.
`CNC(=O)c1cc(Oc2ccc(NC(=O)Nc3ccc(Cl)c(C(F)(F)F)c3)c(F)c2)ccn1` [Regorafenib (BAY 73-4506)]: the “secreted FVIII-Gluc luciferase Z-score” value in the experiment on HEK293 WT BDD-FVIII-Gluc is inactive: -3.47; in experiment [1], inactive: -9.28.
In the same order, the values of `O=C1O[C@H]([C@@H](O)CO)C(O)=C1O` [Vitamin C (Ascorbic acid)] are inactive: -1.56 and inactive: -0.234.
In the same order, the values of `CN1C(CCl)Nc2cc(Cl)c(S(N)(=O)=O)cc2S1(=O)=O` (stereo unspecified) [Methyclothiazide] are inactive: -0.473 and inactive: 0.994.
In the same order, the values of `CCCNC(=O)NS(=O)(=O)c1ccc(Cl)cc1` [Chlorpropamide] are inactive: 1.98 and inactive: 0.989.
For `CN1CCC(OC(c2ccccc2)c2ccccc2)CC1` [Diphenylpyraline HCl], the entries for the “secreted FVIII-Gluc luciferase Z-score” value (in the experiment on HEK293 WT BDD-FVIII-Gluc; in experiment [1]) were inactive: 0.256 and inactive: -1.59, respectively.
In the same order, the values of `C=C[C@]1(C)C[C@@H](OC(=O)CSC(C)(C)CNC(=O)[C@H](N)C(C)C)[C@]2(C)[C@H](C)CC[C@]3(CCC(=O)[C@H]32)[C@@H](C)[C@@H]1O` [Valnemulin HCl] are inactive: -1.31 and inactive: -2.09.
On the same counts, the results for `Cc1ccc(Cl)c(Nc2ccccc2C(=O)O)c1Cl` [Meclofenamate Sodium] are inactive: -0.125 and inactive: -0.282.
In the same order, the values of `CNC(=C[N+](=O)[O-])NCCSCc1csc(CN(C)C)n1` [Nizatidine] are inactive: -2.55 and inactive: -2.34.
